Data reported in US10899822B2, “Compositions comprising D-amino acid peptides and methods of production and use thereof for inhibiting autoantibodies” (The Board of Regents of the University of Oklahoma, priority 2013, dated 2021).
Entries after “also recorded” stand apart in the source; their conditions may differ. Not every detail of the peptide structures is certain; ends, links or a residue may be inferred. Square brackets hold non-standard residues; d marks the D form. Peptide text beside a SMILES is read from it.

Key:
[1] = system: AT1R activating autoantibodies; assay: Activation of AT1R transfected CHO cells by AT1R post-immune rabbit serum; assay type: cell-based; conditions: post-immune rabbit serum pre-incubated with peptide
[2] = system: AT1R activating autoantibodies; assay: Isolated rat cremaster artery contractility induced by serum of AT1R 2nd ECL peptide immunized rabbits; design: species or system rabbit; conditions: p<0.05; for cremaster artery contractility of post-immune serum after in vitro incubation with peptide: 2 hrs pre-incubation of serum with peptide
Text: FIG. 4, Panel A illustrates the dose related contractile effect of serum from an AT1R 2nd ECL peptide immunized rabbit on an isolated rat cremaster artery. The in vitro contractile changes were expressed as % change (decrease) in diameter with the increasing dosage concentration (dilution). These effects are blocked by the selective angiotensin II receptor blocker (ARB) losartan.
There was a significant increase of in vitro cremaster contractility (p<0.01) in the post-immune state compared to the pre-immune values.
FIG. 5 illustrates the effect of in vitro incubation of the RID peptide with serum containing AT1R activating autoantibodies (rabbit) on cremaster artery contractility. […] The same response was observed when the serum was pre-incubated with the L-amino acid target peptide (FIG. 5, Panel B).
Data provided herein were obtained with immunized rabbit serum containing autoantibodies that will stimulate AT1R receptors transfected into CHO cells. […] A bioassay for Angiotensin II-like activity using an isolated perfused cremaster artery in vitro has also been developed.

AT1R autoantibody = assay: Induced atrial tachyarrhythmias (acetylcholine and burst pacing) in AT1R-immunized rabbits; assay type: in vivo, rabbit; conditions: for Non-sustained atrial tachyarrhythmias / Sustained atrial tachyarrhythmias: 2 mg/Kg BW IV, events/attempts
AT1R-AAb = assay: Blood pressure in AT1R-immunized rabbit model of hypertension; assay type: in vivo; conditions: for effect on systolic and diastolic blood pressure: post-immune state (hypertensive), IV

Compound	activation of AT1R transfected CHO cells by post-immune serum (Ang II equivalent values) [1]	activation of AT1R transfected CHO cells by post-immune serum (Ang II equivalent values) ([1]; listed as native L-amino acid peptide)	cremaster artery contractility of post-immune serum after in vitro incubation with peptide [2]	time to abolition of non-sustained and sustained atrial tachyarrhythmias including AF (AT1R autoantibody; MAP (AFHYESQ) immunized hypertensive rabbits, IV administration) [min]	Non-sustained atrial tachyarrhythmias (AT1R autoantibody; Post-Immune + RID (30 min))	Sustained atrial tachyarrhythmias (AT1R autoantibody; Post-Immune + RID (30 min))	Non-sustained atrial tachyarrhythmias (AT1R autoantibody; Post-Immune + RID (90 min))	Sustained atrial tachyarrhythmias (AT1R autoantibody; Post-Immune + RID (90 min))	effect on systolic and diastolic blood pressure (AT1R-AAb)	effect on systolic and diastolic blood pressure (AT1R-AAb; listed as RID peptide)	effect on blood pressure (AT1R-AAb; pre-immune state)	in vitro cremaster contractility of post-immune serum after peptide administration to the rabbit ([2]; serum taken 90 minutes after 2 mg/Kg iv)
C[C@H](N)C(=O)N[C@@H](Cc1ccccc1)C(=O)N[C@@H](Cc1c[nH]cn1)C(=O)N[C@@H](Cc1ccc(O)cc1)C(=O)N[C@@H](CCC(=O)O)C(=O)N[C@@H](CO)C(=O)N[C@@H](CCC(N)=O)C(=O)O [AT1R-ECL2 L-amino acid peptide, AFHYESQ, reference compound] (H-AFHYESQ-OH; N-terminus and C-terminus assumed)	equally blocked	significant inhibition of activation	same response									
C[C@@H](NC(=O)[C@@H](Cc1ccccc1)NC(=O)[C@@H](Cc1c[nH]cn1)NC(=O)[C@@H](Cc1ccc(O)cc1)NC(=O)[C@@H](CCC(=O)O)NC(=O)[C@@H](CO)NC(=O)[C@H](N)CCC(N)=O)C(=O)O [AT1R-ECL2 RID peptide, qseyhfa] (H-[dQ][dS][dE][dY][dH][dF][dA]-OH; N-terminus and C-terminus assumed)	significant inhibition of activation; also recorded: equally blocked		significantly lesser contractile activity	≤ 90	10/10	0/10	1/12	1/12	significant drop in systolic and diastolic BP	rapidly lowered the Systolic and Diastolic BP levels back to normal	not significant effect on BP	significant decrease in activity
